Assay results taken from US20060106014A1, “Methods for treating diabetes” (priority 2004, published 2006).
Some results were stated once for a whole list of compounds, not compound by compound. Some compounds share one range, which may span the group rather than tell each member.

test system: NIDDM male mice (C57BLKS/J-m+/+Lepr db); experiment: Therapeutic study: serum glucose levels in diabetic animals; type: in vivo; details: higher dose tested, i.p. twice daily for 14 days, p<0.05
Experimental: In vivo evaluation of the role of dual inhibitor of both 5-LO and 12/15-LO enzymes in the reduction of serum glucose levels and insulin was performed in C57BLKs/J-m+/+Lepr db mice, a non-insulin dependent diabetic mellitus (NIDDM) model, as described in Examples. […] […].
Non-insulin dependent diabetic mellitus (NIDDM) male mice (C57BLKS/J-m+/+Lepr db), weighing 45±5 g (10 weeks of age) and provided by Institute for Animal Reproduction (IAR, Japan), were used.
Groups of 10 non-insulin dependent diabetic mellitus (NIDDM) male mice (C57BLKS/J-m+/+Lepr db), weighing 45±5 g and 10-weeks-old, were used. The animals were housed in Individually Ventilated Cages Racks (IVC Racks) throughout the experiment; all animals were allowed free access to sterilized Lab chow and sterilized distilled water. The test compounds, as well as vehicle (0.5% DMSO/2% Tween 80/0.9% NaCl), were each administered intraperitoneally twice daily (1st at 9:00 A.M. and 2nd at 16:00 P.M.) for a total of 14 consecutive days. Using blood samples collected from the orbital sinus, pre-treatment serum glucose and insulin levels were determined 24 hours prior to the first dosing on day 0. Post-treatment glucose and insulin levels were detected 4 hours after dosing on days 11 and 14. Also, serum glucose and insulin levels were obtained before and 15, 30 and 90 minutes after glucose loading (orally glucose tolerance test (OGTT) 2 g/kg), 4 hours following the dosing on day 11. Serum glucose and Insulin (on days 0, 11 and 14) levels were determined by enzymatic (Mutaratase-GOD) and ELISA (mouse insulin assay kit) methods, respectively. The percentage of post-treatment relative to pre-treatment group values obtained on days 11 and 14 were analyzed using One Way ANOVA followed by Dunnett's test for comparison between vehicle and treated groups. […]
For effect on OGTT, AUC (area under the curve) for the serum glucose at times 0, 15, 30, and 90 minutes after OGTT was plotted for each test compound and its respective vehicle control. […] Body weight and food intake were measured daily through the course of the study.

| Compound | decrease of baseline serum glucose levels compared to the vehicle group |
| --- | --- |
| CC(Cc1ccc(O)c(O)c1)C(C)Cc1ccc(O)c(O)c1 (stereo not drawn) [Compound A, Nordihydroguaiaretic acid (NDGA), reference compound] | 12-26% |
| Cc1c(O)c(C)c2c(c1F)OC(C)(C)CC2 [Compound D, 8-fluoro-2,2,5,7-tetramethylchroman-6-ol] | 12-26% |
| Cc1c(O)cc2c(c1C)N(c1ccc(O)cc1)C(C)CC2 (stereo not drawn) [Compound E, 1-(4-hydroxyphenyl)-2,7,8-trimethyl-1,2,3,4-tetrahydroquinolin-6-ol] | 12-26% |
